Article PMC11533991
No constants are given. Whether binding was seen depends on the method and setting. Where a sequence is shown, tags or fusion partners need not be part of it.

Tests used:
[1] = biological target: MltG from Mycobacterium abscessus, N-terminal-truncated (residues 85-428) (Mycobacterium abscessus) (UniProt B1MCF7); assay: SEC-MALS; Superdex 200 10/300, 20 mM Tris-HCl (pH 8.0), 150 mM NaCl, room temperature, flow rate 0.4 ml/min; DAWN-TREOS MALS detector; both purified
[2] = biological target: MltG from Mycobacterium abscessus, N-terminal-truncated (residues 85-428) (Mycobacterium abscessus) (UniProt B1MCF7); assay: SEC; Superdex 200 Increase 10/300GL, 20 mM Tris-HCl (pH 8.0), 150 mM NaCl; elution at roughly 15.5 ml between ovalbumin (44 kDa) and myoglobin (17 kDa); both purified

B1: MltG from Mycobacterium abscessus, N-terminal-truncated (residues 85-428) (domain or fragment, UniProt B1MCF7 85-428)
chain: VTDYSGSGVKDFVFEVHRGDTTKVIGQRLKDEGVVATPSAFTDAAAGNQAIAAIQPGFYKLRTKIAGKEAVARLAEQDNRVGLLVIPEGRQLDDVSAVSNGAVTEGIFTLIARASCVDLDGDKHCVAASDLRQAATTASQGELDVPDWASNGVNAVRDDHRRIEGLIAAGRWDFDPMAEPEQILASLIRESNAQYQQLGLLSSDAAGLSPYQVLVVASLLQREAKPRDFAKVARVVYNRLAKHQKLEFDSTVNYPLDRQEVATTDEDRERKTLWNTYVSQGLPGTPISSPSPEALQAAERPESGDWLYFVTIDAEGTTLFTADYNEHLANIELAKKNGILDSAR
binding [1]: no binding
binding [2]: no binding
